Measurements reported in PubChem BioAssay AID1259425 (University of Nebraska Medical Center, 2018)
The whole screen tested about 14,000 reagents; this is a part drawn at random. Not all columns of the deposit are shown. The record does not give: the time to read-out.

Test: 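Seek colon cancer weak points whose silencing resembles KSR1 loss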 (primary screen)
Cell system: HCT116 human colon cancer cells
Reagent: siRNA pool against human genes, 50 nM siRNA
Detection: 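After 50 nM siRNA pool, branched-DNA assay measures six marker transcripts per well, minus blank, normalised to the geometric mean of two housekeeping transcripts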
Direction: BNIP3L mRNA: higher = more BNIP3L transcript after knockdown; NDRG1 mRNA: higher = more NDRG1 transcript after knockdown

The opening 2 entries as a preview:
ARPP21 (GeneID 10777) [SID364000017] | BNIP3L mRNA, set 1 = 0.0856; NDRG1 mRNA, set 1 = 0.361
CDK5RAP3 (GeneID 80279) [SID364003305] | BNIP3L mRNA, set 1 = 0.405; NDRG1 mRNA, set 1 = 0.811

Main list, from the first entry:
ARPP21 (GeneID 10777) [SID364000017] | BNIP3L mRNA, set 1 = 0.0856; NDRG1 mRNA, set 1 = 0.361
CDK5RAP3 (GeneID 80279) [SID364003305] | BNIP3L mRNA, set 1 = 0.405; NDRG1 mRNA, set 1 = 0.811
NOTCH1 (GeneID 4851) [SID364000395] | BNIP3L mRNA, set 1 = 0.126; NDRG1 mRNA, set 1 = 0.224
CD6 (GeneID 923) [SID363997498] | BNIP3L mRNA, set 1 = 0.115; NDRG1 mRNA, set 1 = 0.0955
RDH16 (GeneID 8608) [SID363994777] | BNIP3L mRNA, set 1 = 0.123; NDRG1 mRNA, set 1 = 0.377
HRH4 (GeneID 59340) [SID364002148] | BNIP3L mRNA, set 1 = 0.186; NDRG1 mRNA, set 1 = 0.265
STRN (GeneID 6801) [SID363994300] | BNIP3L mRNA, set 1 = 0.152; NDRG1 mRNA, set 1 = 0.0849
SNURF (GeneID 8926) [SID363996568] | BNIP3L mRNA, set 1 = 0.0891; NDRG1 mRNA, set 1 = 0.309
RELA (GeneID 5970) [SID364002264] | BNIP3L mRNA, set 1 = 0.0899; NDRG1 mRNA, set 1 = 0.225
CSPP1 (GeneID 79848) [SID364003061] | BNIP3L mRNA, set 1 = 0.0976; NDRG1 mRNA, set 1 = 0.221
FRS2 (GeneID 10818) [SID363997441] | BNIP3L mRNA, set 1 = 0.104; NDRG1 mRNA, set 1 = 0.311
MINDY1 (GeneID 55793) [SID364001022] | BNIP3L mRNA, set 1 = 0.0793; NDRG1 mRNA, set 1 = 1.32
SCN11A (GeneID 11280) [SID363998604] | BNIP3L mRNA, set 1 = 0.0645; NDRG1 mRNA, set 1 = 0.229
KRT20 (GeneID 54474) [SID364001328] | BNIP3L mRNA, set 1 = 0.0453; NDRG1 mRNA, set 1 = 0.134
ANGPTL7 (GeneID 10218) [SID364002042] | BNIP3L mRNA, set 1 = 0.0706; NDRG1 mRNA, set 1 = 0.205
FOXJ1 (GeneID 2302) [SID363992716] | BNIP3L mRNA, set 1 = 0.184; NDRG1 mRNA, set 1 = 0.384
TMEM63A (GeneID 9725) [SID364005555] | BNIP3L mRNA, set 1 = 0.0821; NDRG1 mRNA, set 1 = 0.241
GAA (GeneID 2548) [SID363991488] | BNIP3L mRNA, set 1 = 0.0804; NDRG1 mRNA, set 1 = 0.194
TIMM9 (GeneID 26520) [SID363998334] | BNIP3L mRNA, set 1 = 0.0715; NDRG1 mRNA, set 1 = 0.123
MACC1 (GeneID 346389) [SID364004963] | BNIP3L mRNA, set 1 = 0.159; NDRG1 mRNA, set 1 = 0.183
EXOC1 (GeneID 55763) [SID364000922] | BNIP3L mRNA, set 1 = 0.0759; NDRG1 mRNA, set 1 = 0.0939
DUSP9 (GeneID 1852) [SID363992664] | BNIP3L mRNA, set 1 = 0.111; NDRG1 mRNA, set 1 = 0.528
RPL34 (GeneID 6164) [SID363992278] | BNIP3L mRNA, set 1 = 0.27; NDRG1 mRNA, set 1 = 0.363
GLI3 (GeneID 2737) [SID363991504] | BNIP3L mRNA, set 1 = 0.0745; NDRG1 mRNA, set 1 = 0.131
SMOC1 (GeneID 64093) [SID364002363] | BNIP3L mRNA, set 1 = 0.109; NDRG1 mRNA, set 1 = 0.24
CHTF18 (GeneID 63922) [SID364002321] | BNIP3L mRNA, set 1 = 0.117; NDRG1 mRNA, set 1 = 0.662
DYNC1LI2 (GeneID 1783) [SID363996972] | BNIP3L mRNA, set 1 = 0.102; NDRG1 mRNA, set 1 = 0.0534
TXNL4A (GeneID 10907) [SID363997481] | BNIP3L mRNA, set 1 = 0.052; NDRG1 mRNA, set 1 = 0.262
